Results reported in PubChem BioAssay AID662 (National Center for Advancing Translational Sciences (NCATS), 2007).
Some of the results follow. These are further read-outs of the screen, such as a control signal, another cell line or another target. No call is given for them. The list favours compounds with an active or inconclusive main result. Words in brackets tell the shape of the fitted curve; partial curves, single points and poor fits give uncertain potencies.

Assay: Cell signaling CRE-BLA (Fsk stim)
Settings: CHO CRE-bla reporter (cAMP response element driving beta-lactamase), forskolin EC10, beta-lactamase ratio; measured here: 460 nm blue channel
Summary of the method: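 CRE-bla CHO reporter cells treated with compound titration plus EC10 NKH 477 (water-soluble forskolin), incubated 3 h at 37 °C; CCF4 loading 2 h at room temperature, 460/530 nm emission ratio read, AC50 values derived for positive or negative modulators.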

SMILES | AC50
O=C(c1ccccc1)c1nc[nH]c1C(=O)Nc1ccccc1 | 10 µM [rising, partial curve]
CC(C)OC(=O)c1cccnc1SCc1cc(=O)n2ccccc2n1 | 10 µM [rising, partial curve]
COC(C)(C)[C@]12CC(O)(C(C)C)ON1[C@H]1CCCCC1N2O (stereo partly specified) | 25.1 µM [falling, single point]
CCC(C)n1nccc1NC(=O)C(C)OC(=O)c1cc2ccccc2[nH]1 (stereo unspecified) | 3.98 µM [falling, partial curve]
CCOC(=O)N1CCC(N2CC34C=CC(O3)C(C(=O)Nc3ccc(OCC)cc3)C4C2=O)CC1 (stereo unspecified) | 10 µM [rising, single point]
COC(=O)c1ccccc1NC(=O)COC(C)=O | 7.94 µM [rising, partial curve, poor fit]
O=c1[nH]c2ccsc2c(=O)n1-c1ccc(F)cc1 | 0.398 µM [rising, partial curve]
Cc1ccc(-n2ncc(C#N)c2/N=C/N2CCOCC2)cc1 | 3.16 µM [rising, full curve, poor fit]
CCCOc1ccc(N2C(=O)CC(N3CCCC(C(=O)N4CCCC4)C3)C2=O)cc1 (stereo unspecified) | 0.00316 µM [falling, full curve, poor fit]
Cc1nnc(NC(=O)C2(c3ccccc3)CCOCC2)s1 | 10 µM [rising, partial curve]
CCOc1ccc(C2=Nn3c(nnc3-c3ccccc3)SC2)cc1Cl | 0.1 µM [rising, full curve, poor fit]
CCCc1ccc(C(C)NC(=O)c2cnccn2)cc1 (stereo unspecified) | 0.1 µM [falling, partial curve, poor fit]
Cn1c(=O)c2c(nc(NCc3ccco3)n2C)n(C)c1=O | 25.1 µM [rising, single point]
COc1ccccc1C(=O)NCCn1cc(SCC(=O)Nc2cc(C)on2)c2ccccc21 | 1.58 µM [rising, partial curve]
Cc1cc(=O)[nH]c(SCc2nc3ncccn3c2Br)n1 | 3.98 µM [falling, single point]
COc1ccc(Nc2nnc(Cc3ccc(Cl)cc3)c(=O)[nH]2)c(OC)c1 | 0.1 µM [falling, partial curve, poor fit]
COC(=O)Cc1cc(=O)n(-c2nc3ccccc3[nH]2)[nH]1 | 2 µM [falling, single point]
Nc1nc(OCc2ccccc2)c2[nH]cnc2n1 | 25.1 µM [rising, partial curve]
O=C(O)C1Nc2c(O)cccc2C2C=CCC12 (stereo unspecified) | 15.8 µM [falling, partial curve]
CCOC(=O)CCC(=O)Nc1ccccc1C(N)=O | 0.00316 µM [falling, full curve, poor fit]
COc1cccc(Cn2c(=O)c(-c3cc(F)cc(F)c3)nc3cncnc32)c1 | 7.94 µM [rising, partial curve]
O=C(CCS(=O)(=O)c1cccc2nonc12)NCCc1ccccc1 | 25.1 µM [falling, partial curve, poor fit]

In the list so far, 2 contain a Cl atom:
SMILES | AC50
CCOc1ccc(C2=Nn3c(nnc3-c3ccccc3)SC2)cc1Cl | 0.1 µM [rising, full curve, poor fit]
COc1ccc(Nc2nnc(Cc3ccc(Cl)cc3)c(=O)[nH]2)c(OC)c1 | 0.1 µM [falling, partial curve, poor fit]

Continuation.

SMILES | AC50
CCCn1c(=S)[nH]c2cc(C(=O)N3CCN(c4ccccc4OC)CC3)ccc2c1=O | 2.51 µM [rising, single point]
Cn1c(=O)[nH]c(=O)c2c1nc(Sc1nc3ccccc3s1)n2Cc1ccccc1 | 10 µM [rising, single point]
COc1nc(Nc2nc3ccccc3c(=O)[nH]2)nc2ccc(C)cc12 | 0.794 µM [rising, partial curve]
CC(C)(C)CC(=O)N1CCC(c2nc3c(nnn3Cc3c(F)cccc3Cl)c(=O)[nH]2)CC1 | 15.8 µM [rising, partial curve]
COc1ccc(CC(=O)OCC(=O)Nc2c(C)n(C)n(-c3ccccc3)c2=O)cc1 | 25.1 µM [rising, single point]
C[C@@H](CCC[C@@H]1SC[C@H]2NC(=O)N[C@H]12)C(=O)O | 0.251 µM [rising, single point]
Cc1cc(-c2nc3ncccc3o2)ccc1N | 12.6 µM [rising, single point]
Cc1ccc(-c2csc3nnc(SCC(=O)Nc4nsc(-c5ccccc5)n4)n23)cc1 | 6.31 µM [rising, partial curve]
CC1Cc2nc(SCC(=O)OCc3ccccc3)n(C)c(=O)c2S1 (stereo unspecified) | 12.6 µM [rising, single point]
CCOCCCNC(=O)C1c2ccccc2C(=O)N2CCc3ccccc3C12 (stereo unspecified) | 20 µM [rising, partial curve]
CCc1nnc(NCC(=O)N2CCc3ccccc32)s1 | 5.01 µM [falling, partial curve]
N#Cc1cc2c(=O)n3ccccc3nc2n(Cc2cccnc2)c1=O | 1.26 µM [rising, partial curve]
O=C(Nc1cccc(F)c1)N1CCCC2(CCN(C(=O)c3ccncc3)CC2)C1 | 0.01 µM [rising, full curve, poor fit]
CCn1cc(C(=O)NCc2cccnc2)c2cc(OC)c(OC)cc2c1=O | 7.94 µM [rising, partial curve]
CCOc1ccc(NC(=O)CCNS(=O)(=O)c2ccc3c(c2)c(=O)n(C)c(=O)n3C)cc1 | 0.0501 µM [rising, full curve, poor fit]
CC(C)(C)NC1=CC(=O)OC12CCCCC2 | 1.58 µM [rising, partial curve]
COc1ccc(-c2nn(-c3ccccc3)cc2C(=O)Nc2nc(CC(C)=O)ns2)cc1 | 7.94 µM [rising, partial curve]
C=CCN1C(=O)CSc2ccc(C(=O)OCC)cc21 | 10 µM [rising, single point]
CCCCN(C)C(=O)c1oc2ccc(S(=O)(=O)N3CCCCCC3)cc2c1C | 25.1 µM [rising, single point]
COc1ccc(C)cc1NC(=O)CN1CCN(S(=O)(=O)c2ccc(C(C)C)cc2)CC1 | 1.26 µM [rising, full curve]
Cc1cc(NC(=O)CSc2ccc(-c3nc4cc(C)c(C)cc4[nH]3)cn2)no1 | 12.6 µM [rising, partial curve]
COc1ccc(-c2nnn(CC(=O)N(CC(=O)NC3CCCC3)c3cccc(C)c3)n2)cc1OC | 12.6 µM [rising, partial curve]

SMILES | AC50
Cc1nc2cc(N3CCOCC3)c(NC(=O)C3CC3)cc2c(=O)n1Cc1ccccc1 | 10 µM [rising, partial curve]
N=C(N)SCCc1ccc(OCc2ccc([N+](=O)[O-])cc2)cc1 | 0.00501 µM [rising, full curve, poor fit]
COc1ccc(-n2c(SCC(=O)Nc3nccs3)nc3c(c2=O)SC(C)C3)cc1 (stereo unspecified) | 12.6 µM [rising, single point]
O=c1oc2c(CN3CCCCC3)c(O)ccc2cc1-c1nc2ccccc2[nH]1 | 12.6 µM [rising, partial curve]
CCC(=O)N1CCCc2cc(S(=O)(=O)N3CCN(c4ccccc4F)CC3)ccc21 | 15.8 µM [falling, partial curve]
CCCn1c(SCC(=O)Nc2nc3c(s2)CCCC3)nc2c1c(=O)n(C)c(=O)n2C | 5.01 µM [rising, partial curve]
CCOC(=O)c1cn(CC)c2cc(N3CCCCC3)c(F)cc2c1=O | 15.8 µM [rising, single point]
COC(=O)Nc1nc2ccc(C(=O)c3ccccc3)cc2[nH]1 | 10 µM [rising, partial curve]
CC(CC(=O)NC1CCSC1=O)c1ccccc1 (stereo unspecified) | 0.631 µM [rising, full curve]
COc1cc2c(cc1OC)-c1cc(N3CCCc4ccccc43)nc(=O)n1CC2 | 0.2 µM [rising, full curve]
CCN(CC)S(=O)(=O)c1ccc(Cl)c(C(=O)NCC2CCCO2)c1 (stereo unspecified) | 0.794 µM [falling, partial curve]
O=C(CCCCCN1C(=O)c2ccccc2C1=O)Nc1ccc(S(=O)(=O)N2CCCCC2)cc1 | 6.31 µM [falling, partial curve]
COc1ccc(-n2c(=O)c(-c3cccs3)nc3cncnc32)cc1 | 3.98 µM [rising, partial curve]
N#CCCN(C(=O)CSc1ccc2c(c1)OCCO2)c1ccccc1 | 0.0501 µM [falling, partial curve]
CCOc1ccc2[nH]c(C)c(CN(C)C)c(=O)c2c1 | 0.00316 µM [falling, full curve, poor fit]
COc1ccc(NC(=O)c2ccco2)cc1NC(=O)c1cccc(OC(C)C)c1 | 12.6 µM [rising, single point]
Cc1cc2nc(SCC(=O)Nc3nonc3C)c3c(c2cc1C)CCCC3 | 0.398 µM [falling, full curve]
Clc1cccc(Cl)c1-c1nnc2ccc(N3CCOCC3)nn12 | 3.98 µM [rising, full curve]
COC(=O)[C@@]1(Cc2ccc(OC)cc2)[C@H]2c3cc(C(=O)N4CCCC4)n(CCSCCO)c3C[C@H]2CN1C(=O)c1ccccc1 | 25.1 µM [rising, partial curve, poor fit]
Cn1c(=O)c2c(n(Cc3ccccc3)c1=O)NC(=O)C2CC(=O)N1CCc2ccccc2C1 (stereo unspecified) | 12.6 µM [falling, single point]
CCN1CCN(C(=O)CN(c2cc(OC)ccc2OC)S(C)(=O)=O)CC1 | 0.0501 µM [falling, full curve, poor fit]
Cc1ccc(C)n1-c1ccc2c(c1)COC2=O | 0.0794 µM [rising, full curve, poor fit]

2 of these compounds, set out differently.

| SMILES | AC50 |
| --- | --- |
| CCC(C)n1nccc1NC(=O)C(C)OC(=O)c1cc2ccccc2[nH]1 (stereo unspecified) | 3.98 µM [falling, partial curve] |
| Cc1nnc(NC(=O)C2(c3ccccc3)CCOCC2)s1 | 10 µM [rising, partial curve] |
